Source: PMC4799877
No constants are given. Whether binding was seen depends on the method and setting. In cells and extracts the contact can be indirect. Some binding calls cover weakened binding; strength is not graded here. For some of these results: Where a sequence is shown, tags or fusion partners need not be part of it.

By UniProt entry, the sequences of proteins in these tests, tags left out. Where a name states a change or a piece, a line headed by the entry shows the natural chain unless it says otherwise.
UniProt P43694: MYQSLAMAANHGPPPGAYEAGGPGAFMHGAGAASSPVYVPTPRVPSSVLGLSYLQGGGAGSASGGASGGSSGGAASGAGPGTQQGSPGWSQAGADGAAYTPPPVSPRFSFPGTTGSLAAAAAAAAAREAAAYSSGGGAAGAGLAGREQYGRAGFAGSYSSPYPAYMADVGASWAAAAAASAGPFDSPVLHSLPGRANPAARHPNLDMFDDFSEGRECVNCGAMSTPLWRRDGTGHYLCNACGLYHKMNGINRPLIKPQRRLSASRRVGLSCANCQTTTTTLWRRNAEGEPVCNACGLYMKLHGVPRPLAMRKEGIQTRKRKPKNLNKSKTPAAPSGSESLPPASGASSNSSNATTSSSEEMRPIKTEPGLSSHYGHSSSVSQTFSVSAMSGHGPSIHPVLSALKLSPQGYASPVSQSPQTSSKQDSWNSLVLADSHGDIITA
UniProt Q9BWX5: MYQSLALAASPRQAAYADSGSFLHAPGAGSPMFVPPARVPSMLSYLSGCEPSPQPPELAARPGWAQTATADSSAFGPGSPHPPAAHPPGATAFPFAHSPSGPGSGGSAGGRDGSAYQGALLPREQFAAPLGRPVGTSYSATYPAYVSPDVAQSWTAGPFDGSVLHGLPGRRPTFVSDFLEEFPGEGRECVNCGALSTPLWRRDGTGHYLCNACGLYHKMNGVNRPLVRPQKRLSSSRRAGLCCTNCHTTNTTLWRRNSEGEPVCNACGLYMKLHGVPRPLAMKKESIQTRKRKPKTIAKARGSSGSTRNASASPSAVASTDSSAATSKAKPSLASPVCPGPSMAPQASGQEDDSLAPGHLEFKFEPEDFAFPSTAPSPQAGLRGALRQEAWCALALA

Columns and labels:
Flag-tagged GATA4 = Flag-tagged GATA4 (UniProt P43694); assay: co-IP; nuclear extracts of transfected HEK293 cells; legend: immunoprecipitated with anti-Flag (GATA4), GATA5 detected with anti-HA, membrane stripped and reprobed with anti-Flag; methods: antibody on Dynabeads Protein G, 2 h at RT, three washes with PBS 1X
[1] = biological target: HA-tagged GATA5 (wild type) (human) (UniProt Q9BWX5); assay: co-IP; data not shown; methods: anti-HA antibody on Dynabeads Protein G, mixture of proteins incubated 2 h at RT, washed three times with PBS 1X, blot with anti-Flag, quantified by Image J
[2] = biological target: HA-tagged GATA5 p.Y142H (human) (UniProt Q9BWX5); assay: as above

binding (Flag-tagged GATA4) | binding [1] | binding [2] | Molecule
binds | – | – | HA-tagged GATA5 (wild type) (from UniProt Q9BWX5 1-397)
binds | – | – | HA-tagged GATA5 p.Y142H (from UniProt Q9BWX5 1-397)
– | binds | binds | NFATC1 (Flag-tagged) (protein, UniProt O95644 1-943) MPSTSFPVPSKFPLGPAAAVFGRGETLGPAPRAGGTMKSAEEEHYGYASSNVSPALPLPTAHSTLPAPCHNLQTSTPGIIPPADHPSGYGAALDGGPAGYFLSSGHTRPDGAPALESPRIEITSCLGLYHNNNQFFHDVEVEDVLPSSKRSPSTATLSLPSLEAYRDPSCLSPASSLSSRSCNSEASSYESNYSYPYASPQTSPWQSPCVSPKTTDPEEGFPRGLGACTLLGSPRHSPSTSPRASVTEESWLGARSSRPASPCNKRKYSLNGRQPPYSPHHSPTPSPHGSPRVSVTDDSWLGNTTQYTSSAIVAAINALTTDSSLDLGDGVPVKSRKTTLEQPPSVALKVEPVGEDLGSPPPPADFAPEDYSSFQHIRKGGFCDQYLAVPQHPYQWAKPKPLSPTSYMSPTLPALDWQLPSHSGPYELRIEVQPKSHHRAHYETEGSRGAVKASAGGHPIVQLHGYLENEPLMLQLFIGTADDRLLRPHAFYQVHRITGKTVSTTSHEAILSNTKVLEIPLLPENSMRAVIDCAGILKLRNSDIELRKGETDIGRKNTRVRLVFRVHVPQPSGRTLSLQVASNPIECSQRSAQELPLVEKQSTDSYPVVGGKKMVLSGHNFLQDSKVIFVEKAPDGHHVWEMEAKTDRDLCKPNSLVVEIPPFRNQRITSPVHVSFYVCNGKRKRSQYQRFTYLPANVPIIKTEPTDDYEPAPTCGPVSQGLSPLPRPYYSQQLAMPPDPSSCLVAGFPPCPQRSTLMPAAPGVSPKLHDLSPAAYTKGVASPGHCHLGLPQPAGEAPAVQDVPRPVATHPGSPGQPPPALLPQQVSAPPSSSCPPGLEHSLCPSSPSPPLPPATQEPTCLQPCSPACPPATGRPQHLPSTVRRDESPTAGPRLLPEVHEDGSPNLAPIPVTVKREPEELDQLYLDDVNEIIRNDLSSTSTHS
